Source: the supplement of paper PMC10849652
The other results are listed elsewhere or left out.

Protein sequences, listed by entry. Tags and fused reporters are not part of them. Lines headed by an entry give the natural chain unless they say otherwise; changes in a name come on top.
UniProt Q9UMR2: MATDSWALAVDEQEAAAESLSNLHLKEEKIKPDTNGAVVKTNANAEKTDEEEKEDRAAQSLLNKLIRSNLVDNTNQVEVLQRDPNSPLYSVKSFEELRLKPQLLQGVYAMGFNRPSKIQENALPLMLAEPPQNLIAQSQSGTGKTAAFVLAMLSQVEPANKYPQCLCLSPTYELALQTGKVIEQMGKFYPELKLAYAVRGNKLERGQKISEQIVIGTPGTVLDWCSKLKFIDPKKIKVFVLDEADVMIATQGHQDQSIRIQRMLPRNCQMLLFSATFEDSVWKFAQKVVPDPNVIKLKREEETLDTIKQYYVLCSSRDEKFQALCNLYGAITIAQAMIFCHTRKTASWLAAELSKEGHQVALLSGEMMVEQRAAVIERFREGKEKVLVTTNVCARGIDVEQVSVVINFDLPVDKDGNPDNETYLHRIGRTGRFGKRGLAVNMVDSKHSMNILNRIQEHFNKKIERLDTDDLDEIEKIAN
UniProt Q9NPI6: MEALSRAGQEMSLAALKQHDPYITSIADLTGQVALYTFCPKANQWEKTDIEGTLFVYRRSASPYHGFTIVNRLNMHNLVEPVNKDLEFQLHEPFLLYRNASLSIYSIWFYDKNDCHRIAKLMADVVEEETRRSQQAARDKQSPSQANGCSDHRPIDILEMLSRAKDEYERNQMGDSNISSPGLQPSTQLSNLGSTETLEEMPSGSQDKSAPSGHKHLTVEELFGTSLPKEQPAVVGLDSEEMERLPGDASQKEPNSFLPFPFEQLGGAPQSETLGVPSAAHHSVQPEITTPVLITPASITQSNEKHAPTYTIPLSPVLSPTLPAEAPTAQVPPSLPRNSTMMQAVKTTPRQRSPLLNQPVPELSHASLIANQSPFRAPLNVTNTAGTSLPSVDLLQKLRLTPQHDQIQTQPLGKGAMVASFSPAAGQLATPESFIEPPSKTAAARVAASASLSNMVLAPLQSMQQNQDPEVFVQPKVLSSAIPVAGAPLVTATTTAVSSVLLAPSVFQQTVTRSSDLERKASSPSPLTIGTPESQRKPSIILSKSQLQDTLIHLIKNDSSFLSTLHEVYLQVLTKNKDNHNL
UniProt O94830: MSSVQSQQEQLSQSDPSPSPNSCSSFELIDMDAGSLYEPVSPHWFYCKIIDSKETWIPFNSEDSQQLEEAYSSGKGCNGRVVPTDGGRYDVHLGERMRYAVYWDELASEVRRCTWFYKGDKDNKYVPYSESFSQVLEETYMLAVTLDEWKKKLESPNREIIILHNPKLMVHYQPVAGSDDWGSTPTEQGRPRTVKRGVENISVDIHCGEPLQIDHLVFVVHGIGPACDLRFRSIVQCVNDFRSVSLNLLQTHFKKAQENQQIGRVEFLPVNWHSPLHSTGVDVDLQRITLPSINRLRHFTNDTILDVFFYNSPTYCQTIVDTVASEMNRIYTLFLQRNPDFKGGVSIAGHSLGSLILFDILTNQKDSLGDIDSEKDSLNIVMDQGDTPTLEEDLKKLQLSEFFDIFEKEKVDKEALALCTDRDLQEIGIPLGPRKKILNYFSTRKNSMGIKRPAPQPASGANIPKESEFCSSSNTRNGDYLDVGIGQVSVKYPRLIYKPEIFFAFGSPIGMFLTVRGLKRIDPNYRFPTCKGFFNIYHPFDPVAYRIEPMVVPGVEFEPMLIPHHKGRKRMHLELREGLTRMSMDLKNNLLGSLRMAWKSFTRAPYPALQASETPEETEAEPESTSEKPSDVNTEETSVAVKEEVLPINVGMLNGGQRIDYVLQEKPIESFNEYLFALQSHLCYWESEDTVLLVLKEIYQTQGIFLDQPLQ
UniProt Q9Y2R4: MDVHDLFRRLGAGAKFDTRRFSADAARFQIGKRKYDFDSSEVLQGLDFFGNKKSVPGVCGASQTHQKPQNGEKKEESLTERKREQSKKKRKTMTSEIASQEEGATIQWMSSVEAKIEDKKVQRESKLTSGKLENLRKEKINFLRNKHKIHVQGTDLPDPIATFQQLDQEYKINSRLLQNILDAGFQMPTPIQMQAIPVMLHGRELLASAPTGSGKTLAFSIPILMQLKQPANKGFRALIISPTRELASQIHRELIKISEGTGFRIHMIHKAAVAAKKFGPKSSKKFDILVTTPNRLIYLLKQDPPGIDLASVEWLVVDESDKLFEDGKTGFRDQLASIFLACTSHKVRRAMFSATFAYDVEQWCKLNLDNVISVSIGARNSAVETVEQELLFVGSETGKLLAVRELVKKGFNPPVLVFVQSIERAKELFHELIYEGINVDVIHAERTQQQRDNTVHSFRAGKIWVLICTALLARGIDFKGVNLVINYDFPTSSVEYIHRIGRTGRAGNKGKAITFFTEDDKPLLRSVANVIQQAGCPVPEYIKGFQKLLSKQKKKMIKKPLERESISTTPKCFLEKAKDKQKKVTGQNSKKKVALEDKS
UniProt O00571: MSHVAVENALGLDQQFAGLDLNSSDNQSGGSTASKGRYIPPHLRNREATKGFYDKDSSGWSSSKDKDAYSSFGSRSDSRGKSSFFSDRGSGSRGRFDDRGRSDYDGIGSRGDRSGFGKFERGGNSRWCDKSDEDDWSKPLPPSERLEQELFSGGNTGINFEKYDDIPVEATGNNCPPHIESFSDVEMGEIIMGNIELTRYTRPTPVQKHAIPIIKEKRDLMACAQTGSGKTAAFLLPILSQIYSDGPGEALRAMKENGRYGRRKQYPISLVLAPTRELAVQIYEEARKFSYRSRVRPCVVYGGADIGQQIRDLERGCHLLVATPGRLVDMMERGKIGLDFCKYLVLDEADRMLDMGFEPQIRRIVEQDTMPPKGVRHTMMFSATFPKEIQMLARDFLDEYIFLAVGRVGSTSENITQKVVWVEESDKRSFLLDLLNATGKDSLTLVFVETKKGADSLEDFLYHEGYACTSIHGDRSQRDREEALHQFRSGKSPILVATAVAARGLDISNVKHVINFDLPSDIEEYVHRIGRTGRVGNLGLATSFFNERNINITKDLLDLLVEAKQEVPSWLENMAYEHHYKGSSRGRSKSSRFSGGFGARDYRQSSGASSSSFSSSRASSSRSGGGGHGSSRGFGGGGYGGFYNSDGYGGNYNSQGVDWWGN
UniProt O00399, whole entry, looked up: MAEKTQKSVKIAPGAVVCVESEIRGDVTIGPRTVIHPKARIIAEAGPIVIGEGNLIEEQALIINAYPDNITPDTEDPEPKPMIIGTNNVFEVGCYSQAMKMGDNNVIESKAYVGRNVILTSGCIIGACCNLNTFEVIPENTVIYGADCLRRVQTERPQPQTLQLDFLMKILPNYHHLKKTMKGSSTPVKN
UniProt Q8IWF6: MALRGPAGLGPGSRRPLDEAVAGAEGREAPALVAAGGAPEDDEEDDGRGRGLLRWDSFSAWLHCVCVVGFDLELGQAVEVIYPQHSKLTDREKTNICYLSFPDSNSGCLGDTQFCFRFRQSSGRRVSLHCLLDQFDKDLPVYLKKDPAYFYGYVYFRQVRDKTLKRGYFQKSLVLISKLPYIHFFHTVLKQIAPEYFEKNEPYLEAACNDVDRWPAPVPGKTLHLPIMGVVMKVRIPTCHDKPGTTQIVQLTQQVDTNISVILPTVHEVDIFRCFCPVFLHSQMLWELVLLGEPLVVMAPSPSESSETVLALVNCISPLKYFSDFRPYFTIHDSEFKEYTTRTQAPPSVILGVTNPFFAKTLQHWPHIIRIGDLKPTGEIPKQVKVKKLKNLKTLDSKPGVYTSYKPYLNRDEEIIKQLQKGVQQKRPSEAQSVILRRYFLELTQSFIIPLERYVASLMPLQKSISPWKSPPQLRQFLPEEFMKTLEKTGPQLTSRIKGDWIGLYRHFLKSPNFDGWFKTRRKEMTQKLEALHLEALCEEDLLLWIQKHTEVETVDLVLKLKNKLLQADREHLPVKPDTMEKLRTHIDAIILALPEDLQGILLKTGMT
UniProt Q9UK59: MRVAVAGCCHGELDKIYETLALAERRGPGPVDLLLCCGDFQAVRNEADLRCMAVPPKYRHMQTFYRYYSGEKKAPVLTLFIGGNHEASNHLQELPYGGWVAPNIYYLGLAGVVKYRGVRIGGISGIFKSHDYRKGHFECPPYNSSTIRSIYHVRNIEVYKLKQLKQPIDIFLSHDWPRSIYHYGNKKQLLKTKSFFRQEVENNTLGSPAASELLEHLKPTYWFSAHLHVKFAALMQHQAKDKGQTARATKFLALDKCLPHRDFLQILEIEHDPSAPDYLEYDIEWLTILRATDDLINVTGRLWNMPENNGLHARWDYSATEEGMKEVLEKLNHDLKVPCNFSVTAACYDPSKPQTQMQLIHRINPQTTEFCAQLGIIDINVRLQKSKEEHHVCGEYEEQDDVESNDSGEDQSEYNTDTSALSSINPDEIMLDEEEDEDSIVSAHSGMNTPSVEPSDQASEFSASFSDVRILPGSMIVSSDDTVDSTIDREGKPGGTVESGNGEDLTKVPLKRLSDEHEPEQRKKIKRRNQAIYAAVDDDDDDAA
UniProt P07108: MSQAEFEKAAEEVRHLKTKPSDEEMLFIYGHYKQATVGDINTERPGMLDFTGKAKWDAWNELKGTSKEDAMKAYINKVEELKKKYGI
UniProt Q9BQ39: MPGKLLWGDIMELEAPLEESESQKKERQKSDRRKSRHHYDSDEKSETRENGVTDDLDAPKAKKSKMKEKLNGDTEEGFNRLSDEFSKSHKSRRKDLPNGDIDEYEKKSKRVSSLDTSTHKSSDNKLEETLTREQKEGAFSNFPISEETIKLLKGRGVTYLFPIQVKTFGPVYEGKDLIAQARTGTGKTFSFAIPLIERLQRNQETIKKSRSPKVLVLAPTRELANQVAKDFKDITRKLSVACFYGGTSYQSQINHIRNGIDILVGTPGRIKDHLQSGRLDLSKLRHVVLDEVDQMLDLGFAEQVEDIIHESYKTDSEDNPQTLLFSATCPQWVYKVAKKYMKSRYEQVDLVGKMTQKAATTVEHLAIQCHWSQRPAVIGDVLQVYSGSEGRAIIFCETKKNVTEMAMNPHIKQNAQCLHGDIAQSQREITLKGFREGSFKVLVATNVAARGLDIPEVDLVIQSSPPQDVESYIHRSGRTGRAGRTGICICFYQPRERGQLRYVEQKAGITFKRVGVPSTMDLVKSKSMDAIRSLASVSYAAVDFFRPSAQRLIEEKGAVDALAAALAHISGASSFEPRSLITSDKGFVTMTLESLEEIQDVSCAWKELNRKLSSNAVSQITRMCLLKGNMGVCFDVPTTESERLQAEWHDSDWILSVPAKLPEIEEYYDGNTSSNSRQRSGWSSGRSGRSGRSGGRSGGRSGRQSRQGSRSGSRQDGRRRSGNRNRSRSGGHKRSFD
UniProt Q9UER7, whole entry, looked up: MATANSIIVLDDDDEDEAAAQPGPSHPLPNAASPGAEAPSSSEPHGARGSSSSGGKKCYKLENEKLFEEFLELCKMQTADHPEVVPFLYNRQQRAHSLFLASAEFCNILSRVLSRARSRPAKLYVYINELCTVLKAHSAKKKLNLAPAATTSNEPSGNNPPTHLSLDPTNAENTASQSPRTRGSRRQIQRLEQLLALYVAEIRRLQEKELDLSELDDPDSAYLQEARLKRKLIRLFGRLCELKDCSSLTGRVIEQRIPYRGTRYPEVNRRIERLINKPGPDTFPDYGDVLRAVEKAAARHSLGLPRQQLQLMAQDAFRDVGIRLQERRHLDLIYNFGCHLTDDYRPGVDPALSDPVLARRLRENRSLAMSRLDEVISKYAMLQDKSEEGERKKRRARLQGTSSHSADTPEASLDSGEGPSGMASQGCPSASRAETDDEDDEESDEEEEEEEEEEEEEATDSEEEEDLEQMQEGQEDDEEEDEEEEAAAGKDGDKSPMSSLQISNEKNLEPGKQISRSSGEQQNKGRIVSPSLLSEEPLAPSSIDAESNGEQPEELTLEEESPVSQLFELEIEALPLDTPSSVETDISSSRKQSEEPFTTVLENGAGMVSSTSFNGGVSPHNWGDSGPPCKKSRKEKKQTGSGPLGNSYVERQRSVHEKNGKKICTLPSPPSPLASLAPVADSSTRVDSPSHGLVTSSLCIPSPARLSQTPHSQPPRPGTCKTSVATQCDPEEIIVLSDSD
UniProt Q5T1V6: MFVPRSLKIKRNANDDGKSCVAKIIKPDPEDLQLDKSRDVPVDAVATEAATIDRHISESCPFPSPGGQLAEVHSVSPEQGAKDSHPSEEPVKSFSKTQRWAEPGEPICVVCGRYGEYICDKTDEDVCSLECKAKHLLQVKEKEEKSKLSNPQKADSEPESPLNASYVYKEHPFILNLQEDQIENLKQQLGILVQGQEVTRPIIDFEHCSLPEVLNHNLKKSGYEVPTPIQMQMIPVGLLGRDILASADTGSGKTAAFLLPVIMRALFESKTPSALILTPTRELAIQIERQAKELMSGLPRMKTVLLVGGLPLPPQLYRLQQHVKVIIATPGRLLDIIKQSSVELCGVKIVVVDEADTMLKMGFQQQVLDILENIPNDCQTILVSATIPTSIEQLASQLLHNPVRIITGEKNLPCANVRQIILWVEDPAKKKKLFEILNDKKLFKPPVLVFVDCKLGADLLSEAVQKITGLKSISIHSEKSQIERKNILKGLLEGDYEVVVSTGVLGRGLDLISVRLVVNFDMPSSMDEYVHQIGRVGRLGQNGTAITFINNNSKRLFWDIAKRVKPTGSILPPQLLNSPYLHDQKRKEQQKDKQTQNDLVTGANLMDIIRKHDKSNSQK

Legend:
Test in all cases: log2 fold change, soluble protein after heating vs DMSO (PISA); higher = thermal stabilisation; K562 lysate, 10 uM; active = over 0.2 and 3.5 SD of the protein, either way, in both replicates (recomputed)
alvocidib = compound: CN1CC[C@H](c2c(O)cc(O)c3c(=O)cc(-c4ccccc4Cl)oc23)[C@H](O)C1 [alvocidib]
In short: (§1)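 Dounce homogenisation of K562 pellets in PBS pH 7.4 with 1 mM MgCl2 produced a crude extract, used at 1 mg/mL protein. Exposure to 10 μM compound lasted 30 min, and aliquots were then heated for 3 min across 48°C-58°C, pooled and brought to 0.5% NP-40 at 4°C. The supernatant after 21,000xg for 90 min was quantified by TMTpro 16plex LC-MS/MS with channel sums equalised. Duplicate values are given as log-two fold change in thermal stability relative to solvent controls.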

Tubastatin A = compound: CN1CCc2c(c3ccccc3n2Cc2ccc(C(=O)NO)cc2)C1 [Tubastatin A]
In short: as §1

[1] = compound: CNC(=O)C1=CC=CC=C1NC2=NC(=NC=C2Cl)NC3=C(C=C(C=C3)N4CCOCC4)OC
In short: as §1

defactinib = compound: CNC(=O)c1ccc(Nc2ncc(C(F)(F)F)c(NCc3nccnc3N(C)S(C)(=O)=O)n2)cc1 [defactinib]
In short: as §1

[2] = compound: CNc1nc(-c2ccc3c(N)n[nH]c3c2)cc(N2C[C@@H](C(=O)NC3CCCCC3)CC[C@H]2C)n1
In short: as §1

encorafenib = compound: COC(=O)N[C@@H](C)CNc1nccc(-c2cn(C(C)C)nc2-c2cc(Cl)cc(NS(C)(=O)=O)c2F)n1 [encorafenib]
In short: as §1

[3] = compound: COC(=O)[C@H](CCSC)NC(=O)C1=C(C=C(C=C1)NC[C@H](CS)N)C2=CC=CC=C2
In short: as §1

alisertib = compound: COc1cc(Nc2ncc3c(n2)-c2ccc(Cl)cc2C(c2c(F)cccc2OC)=NC3)ccc1C(=O)O [alisertib]
In short: as §1

[4] = compound: COc1cc2nc(-c3cc(F)ccc3O)nc(N[C@@H]3CNC[C@H]3C(C)(C)O)c2cc1OC
In short: as §1

gefitinib = compound: COc1cc2ncnc(Nc3ccc(F)c(Cl)c3)c2cc1OCCCN1CCOCC1 [gefitinib]
In short: as §1

lapatinib = compound: CS(=O)(=O)CCNCc1ccc(-c2ccc3ncnc(Nc4ccc(OCc5cccc(F)c5)c(Cl)c4)c3c2)o1 [lapatinib]
In short: as §1

pictilisib = compound: CS(=O)(=O)N1CCN(Cc2cc3nc(-c4cccc5[nH]ncc45)nc(N4CCOCC4)c3s2)CC1 [pictilisib]
In short: as §1

crizotinib = compound: C[C@@H](Oc1cc(-c2cnn(C3CCNCC3)c2)cnc1N)c1c(Cl)ccc(F)c1Cl [crizotinib]
In short: as §1

[5] = compound: C[C@H](C1=CC=C(C=C1)C(=O)NC2=C3C=CNC3=NC=C2)N
In short: as §1

duvelisib = compound: C[C@H](Nc1ncnc2nc[nH]c12)c1cc2cccc(Cl)c2c(=O)n1-c1ccccc1 [duvelisib]
In short: as §1

gandotinib = compound: Cc1cc(Nc2cc(CN3CCOCC3)c3nc(C)c(Cc4ccc(Cl)cc4F)n3n2)n[nH]1 [gandotinib]
In short: as §1

tozasertib = compound: Cc1cc(Nc2cc(N3CCN(C)CC3)nc(Sc3ccc(NC(=O)C4CC4)cc3)n2)n[nH]1 [tozasertib]
In short: as §1

doramapimod = compound: Cc1ccc(-n2nc(C(C)(C)C)cc2NC(=O)Nc2ccc(OCCN3CCOCC3)c3ccccc23)cc1 [doramapimod]
In short: as §1

bafetinib = compound: Cc1ccc(NC(=O)c2ccc(CN3CC[C@H](N(C)C)C3)c(C(F)(F)F)c2)cc1Nc1nccc(-c2cncnc2)n1 [bafetinib]
In short: as §1

[6] = compound: Cc1cccc(CC(=O)N2CCc3c2ccc(-c2cn(C)c4ncnc(N)c24)c3F)n1
In short: as §1

Measured: log2 fold change

DENND4A isoform 2 (UniProt Q7Z401)
inactive: alvocidib -0.067 | Tubastatin A -0.141 | [1] -0.024 | defactinib 0.077 | [2] -0.001 | encorafenib 0.013 | [3] 0.032 | alisertib -0.018 | [4] 0.17 | gefitinib -0.041 | lapatinib -0.034 | pictilisib 0.001 | crizotinib -0.038 | [5] -0.206 | duvelisib -0.067 | gandotinib 0.045 | tozasertib -0.027 | doramapimod -0.009 | bafetinib -0.064 | [6] 0.203

DDX19B (UniProt Q9UMR2)
inactive: alvocidib -0.012 | Tubastatin A -0.028 | [1] 0.002 | defactinib -0.009 | [2] 0.022 | encorafenib 0 | [3] 0.064 | alisertib 0.004 | [4] 0.016 | gefitinib 0.026 | lapatinib -0.004 | pictilisib 0.01 | crizotinib -0.061 | [5] -0.021 | duvelisib 0.005 | gandotinib -0.012 | tozasertib -0.027 | doramapimod 0.019 | bafetinib -0.026 | [6] 0.042

DCP1A (UniProt Q9NPI6)
inactive: alvocidib -0.002 | Tubastatin A 0 | [1] 0.003 | defactinib 0.033 | [2] 0 | encorafenib 0.006 | [3] -0.046 | alisertib -0.074 | [4] 0.026 | gefitinib 0.022 | lapatinib -0.015 | pictilisib -0.015 | crizotinib -0.042 | [5] -0.008 | duvelisib 0.023 | gandotinib 0.003 | tozasertib -0.03 | doramapimod -0.031 | bafetinib 0.043 | [6] 0.089

DDHD2 (UniProt O94830)
inactive: alvocidib 0.038 | Tubastatin A -0.013 | [1] 0.04 | defactinib 0.032 | [2] 0.011 | encorafenib 0.048 | [3] -0.155 | alisertib 0.002 | [4] 0.018 | gefitinib -0.014 | lapatinib 0.011 | pictilisib -0.004 | crizotinib -0.039 | [5] -0.004 | duvelisib 0.004 | gandotinib -0.043 | tozasertib 0.014 | doramapimod 0.028 | bafetinib -0.011 | [6] -0.012

DDX52 (UniProt Q9Y2R4)
inactive: alvocidib -0.042 | Tubastatin A -0.086 | [1] 0.129 | defactinib 0.027 | [2] -0.013 | encorafenib 0.054 | [3] -0.048 | alisertib -0.036 | [4] 0.031 | gefitinib 0.063 | lapatinib 0.049 | pictilisib 0.109 | crizotinib -0.039 | [5] -0.001 | duvelisib -0.031 | gandotinib 0.076 | tozasertib -0.131 | doramapimod 0.202 | bafetinib -0.125 | [6] 0.033

Reprinted from the listing (four entries):
DDX19B (UniProt Q9UMR2)
inactive: alvocidib -0.012 | Tubastatin A -0.028 | [1] 0.002 | defactinib -0.009 | [2] 0.022 | encorafenib 0 | [3] 0.064 | alisertib 0.004 | [4] 0.016 | gefitinib 0.026 | lapatinib -0.004 | pictilisib 0.01 | crizotinib -0.061 | [5] -0.021 | duvelisib 0.005 | gandotinib -0.012 | tozasertib -0.027 | doramapimod 0.019 | bafetinib -0.026 | [6] 0.042

DCP1A (UniProt Q9NPI6)
inactive: alvocidib -0.002 | Tubastatin A 0 | [1] 0.003 | defactinib 0.033 | [2] 0 | encorafenib 0.006 | [3] -0.046 | alisertib -0.074 | [4] 0.026 | gefitinib 0.022 | lapatinib -0.015 | pictilisib -0.015 | crizotinib -0.042 | [5] -0.008 | duvelisib 0.023 | gandotinib 0.003 | tozasertib -0.03 | doramapimod -0.031 | bafetinib 0.043 | [6] 0.089

DDHD2 (UniProt O94830)
inactive: alvocidib 0.038 | Tubastatin A -0.013 | [1] 0.04 | defactinib 0.032 | [2] 0.011 | encorafenib 0.048 | [3] -0.155 | alisertib 0.002 | [4] 0.018 | gefitinib -0.014 | lapatinib 0.011 | pictilisib -0.004 | crizotinib -0.039 | [5] -0.004 | duvelisib 0.004 | gandotinib -0.043 | tozasertib 0.014 | doramapimod 0.028 | bafetinib -0.011 | [6] -0.012

DDX52 (UniProt Q9Y2R4)
inactive: alvocidib -0.042 | Tubastatin A -0.086 | [1] 0.129 | defactinib 0.027 | [2] -0.013 | encorafenib 0.054 | [3] -0.048 | alisertib -0.036 | [4] 0.031 | gefitinib 0.063 | lapatinib 0.049 | pictilisib 0.109 | crizotinib -0.039 | [5] -0.001 | duvelisib -0.031 | gandotinib 0.076 | tozasertib -0.131 | doramapimod 0.202 | bafetinib -0.125 | [6] 0.033

Following part

DAGLB (UniProt Q8NCG7)
inactive: alvocidib 0.029 | Tubastatin A 0.04 | [1] -0.013 | defactinib 0.023 | [2] -0.011 | encorafenib -0.001 | [3] 0.066 | alisertib 0.041 | [4] 0.075 | gefitinib 0.067 | lapatinib -0.003 | pictilisib 0.011 | crizotinib 0.046 | [5] -0.009 | duvelisib -0.05 | gandotinib -0.072 | tozasertib 0.035 | doramapimod 0.059 | bafetinib -0.031 | [6] -0.042

DDX3X (UniProt O00571)
inactive: alvocidib -0.062 | Tubastatin A -0.229 | [1] 0.049 | defactinib -0.007 | [2] -0.022 | encorafenib 0.018 | [3] 0.012 | alisertib 0.01 | [4] -0.002 | gefitinib 0.155 | lapatinib -0.026 | pictilisib -0.014 | crizotinib -0.118 | [5] -0.081 | duvelisib 0.051 | gandotinib 0.027 | tozasertib -0.02 | doramapimod 0.086 | bafetinib -0.08 | [6] 0.112

DCTN6 (UniProt O00399)
inactive: alvocidib 0.002 | Tubastatin A 0.009 | [1] 0.025 | defactinib 0.019 | [2] 0.006 | encorafenib 0.002 | [3] -0.073 | alisertib -0.095 | [4] -0.052 | gefitinib -0.018 | lapatinib 0.004 | pictilisib -0.005 | crizotinib 0.068 | [5] 0.002 | duvelisib -0.009 | gandotinib -0.02 | tozasertib -0.014 | doramapimod -0.009 | bafetinib -0.07 | [6] 0.004

DENND6A (UniProt Q8IWF6)
inactive: alvocidib -0.009 | Tubastatin A -0.072 | [1] -0.006 | defactinib 0.007 | [2] 0.103 | encorafenib 0.007 | [3] -0.134 | alisertib 0.059 | [4] -0.024 | gefitinib 0.047 | lapatinib -0.077 | pictilisib -0.079 | crizotinib 0.028 | [5] -0.013 | duvelisib -0.022 | gandotinib -0.006 | tozasertib -0.038 | doramapimod 0.054 | bafetinib -0.099 | [6] 0.086

DBR1 (UniProt Q9UK59)
inactive: alvocidib -0.071 | Tubastatin A 0.021 | [1] 0.002 | defactinib -0.001 | [2] 0.055 | encorafenib 0.046 | [3] 0.008 | alisertib -0.02 | [4] 0.001 | gefitinib 0.026 | lapatinib -0.028 | pictilisib 0.005 | crizotinib 0.013 | [5] -0.184 | duvelisib 0.005 | gandotinib 0.059 | tozasertib 0.004 | doramapimod 0.04 | bafetinib -0.039 | [6] 0.07

DBI isoform 5 (UniProt P07108)
inactive: alvocidib 0.184 | Tubastatin A 0.117 | [1] 0.017 | defactinib 0.12 | [2] -0.055 | encorafenib 0.015 | [3] -0.076 | alisertib 0.086 | [4] 0.005 | gefitinib -0.031 | lapatinib 0.158 | pictilisib 0.012 | crizotinib 0.022 | [5] 0.206 | duvelisib 0.076 | gandotinib -0.112 | tozasertib 0.021 | doramapimod -0.024 | bafetinib -0.027 | [6] -0.104

DAP3 (UniProt P51398)
inactive: alvocidib 0.026 | Tubastatin A -0.006 | [1] 0.004 | defactinib 0.013 | [2] 0.055 | encorafenib -0.017 | [3] 0.016 | alisertib -0.002 | [4] 0.01 | gefitinib -0.009 | lapatinib 0.028 | pictilisib -0.003 | crizotinib -0.063 | [5] 0.03 | duvelisib 0.01 | gandotinib -0.004 | tozasertib 0.013 | doramapimod -0.018 | bafetinib 0.029 | [6] 0.013

DDX50 (UniProt Q9BQ39)
inactive: alvocidib 0.085 | Tubastatin A -0.148 | [1] 0.036 | defactinib -0.064 | [2] 0.012 | encorafenib -0.002 | [3] 0.009 | alisertib 0.024 | [4] 0.013 | gefitinib -0.014 | lapatinib -0.022 | pictilisib 0.051 | crizotinib -0.056 | [5] 0.079 | duvelisib -0.011 | gandotinib -0.067 | tozasertib 0.146 | doramapimod -0.004 | bafetinib -0.023 | [6] -0.011

DERL1 (UniProt Q9BUN8)
inactive: alvocidib 0.008 | Tubastatin A 0.009 | [1] -0.001 | defactinib -0.017 | [2] 0.034 | encorafenib -0.017 | [3] -0.043 | alisertib -0.061 | [4] -0.087 | gefitinib 0.045 | lapatinib 0.013 | pictilisib -0.067 | crizotinib -0.027 | [5] -0.122 | duvelisib -0.011 | gandotinib 0.046 | tozasertib 0.053 | doramapimod 0.002 | bafetinib 0.006 | [6] 0

DAXX (UniProt Q9UER7)
inactive: alvocidib -0.016 | Tubastatin A -0.045 | [1] 0.023 | defactinib 0.001 | [2] 0.179 | encorafenib 0.013 | [3] 0.044 | alisertib -0.01 | [4] 0.08 | gefitinib 0.008 | lapatinib -0.061 | pictilisib 0.006 | crizotinib -0.036 | [5] -0.011 | duvelisib -0.007 | gandotinib 0.04 | tozasertib -0.009 | doramapimod -0.014 | bafetinib 0.014 | [6] 0.062

DDX59 (UniProt Q5T1V6)
inactive: alvocidib 0.016 | Tubastatin A 0.023 | [1] 0.039 | defactinib 0.052 | [2] -0.015 | encorafenib -0.012 | [3] 0 | alisertib 0.048 | [4] 0.02 | gefitinib 0.002 | lapatinib -0.005 | pictilisib -0.009 | crizotinib 0.004 | [5] -0.045 | duvelisib -0.028 | gandotinib -0.005 | tozasertib 0.026 | doramapimod 0.049 | bafetinib 0.029 | [6] 0.024
